Data taken from patent US8044057B2, “Methods for suppressing an immune response or treating a proliferative disorder” (The United States of America as represented by the …, priority 2003, dated 2011).
At least one structure is not confirmed: it was looked up by name or label, or the drawing left a doubt.

Legend:
Format in all cases: cell-based, human
A549 cells [1] = assay: BrDU incorporation (in situ ELISA) in A549 cells; details: 24 hours, 0-200 μM LY303511 without or with rapamycin 200 ng/ml
A549 cells [2] = assay: Propidium iodide flow cytometry cell cycle analysis in A549 cells; details: rapamycin 200 ng/ml, 24 hours
A549 cells [3] = assay: Western blot of cell cycle inhibitors, cyclins and phospho-Rb in A549 cells; details: 100 mcM LY303511 or rapamycin 200 ng/ml
Method: FIGS. 3A-3B are bar graphs and digital images showing the effect of LY303511 on the levels of cell cycle inhibitors and cyclins. A549 cells (˜1×10^6 cells per 100-mm dish) were grown for 48 h before addition of 0.1% DMSO, 100 μM LY303511, or rapamycin, 200 ng/ml, for 0, 12, or 24 hours. At the indicated times, cells were homogenized and stored at −80° C. For Western blot analyses, samples (70 μg) of lysate proteins separated by SDS-PAGE were transferred to nitrocellulose membranes and reacted with the following antibodies: A. Phospho-S6K T389 (pS6K), p27 Kip1, p21 Cip1, phospho-Rb S807/S811, or B. Cyclin A, Cyclin B, Cyclin D, and Cyclin E. All blots are from one experiment. Data below (relative density) are means of densitometric values from duplicate dishes treated with inhibitors for 24 hours relative to DMSO control=1.0 in three experiments. *p<0.05 vs. DMSO control by Student's t-test.
In another experiment, A549 cells were grown to sub-confluence in serum-containing media, and incubated with a vehicle, 100 mcM LY303511, or rapamycin, 200 ng/ml for 0, 12, or 24 hours. Cells were lysed, and proteins separated by SDS-PAGE before transfer to nitrocellulose membranes. Membranes were incubated with antibodies against p27Kip1, p21 Cip1 orphospho-P70 S6 kinase T389.

A549 cells [4] = assay: KI-67 immunostaining in A549 cells; details: 24 hours
Source text: Slides were mounted in solution containing DAPI to stain nuclei. Photos were captured using equal laser intensity and gain.

PASM cells = assay: Propidium iodide flow cytometry cell cycle analysis in PASM cells; details: 24 hours
Method: FIGS. 5A-5B are bar graphs showing that LY303511 inhibits the cell cycle by causing combined G1 and G2/M arrest and that LY303511 inhibits CK2 activity. For the data shown in FIG. 5A, PASM cells were cultured in medium with FBS for 48 hours before the addition of 0-100 μM LY303511 without or with raparnycin, 400 ng/ml, for 24 hours. Cells were then harvested and incubated with propidium iodide for 2 hours before counting using a Becton-Dickson FACSCalibur. Data are the means (±SEM) of percentages of cells in G1, S, or G2/M phase of the cell cycle in three experiments with duplicate assays. *p<0.05 vs. DMSO control, or †p<0.05 vs. 10 μM LY303511, by Student's t—test. FIG. 5B is a bar graph showing that LY303511 or LY294002 inhibits CK2 in vitro. […] Data are the means of values for samples with inhibitors expressed as percentage of that for control, which was (mean±SEM) 0.2±0.03 pmol phosphate/100 ng protein/10 min. […]
In order to investigate the effect of LY303511 on the cell cycle, A549 cells or pulmonary artery smooth muscle cells were grown to sub-confluence in serum-containing media, and incubated with vehicle, 10, or 100 mcM LY303511, without or with Rapamycin (200 ng/ml), for 24 hours. […] The proportion of cells in G1, S, or G2/M phase of the cell cycle for each experimental condition was determined. […]

A549 cells [5] = assay: Microarray gene expression analysis in A549 cells; details: inhibitor 1 hour before L/I for 6 hours
Method: Microarray gene expression analyses have been performed in which A549 cells were incubated without or with LY294002 or wortmannin for 1 hour before the addition of L/I for 6 hours. […] The mRNAs of other kinases that were increased by LY294002 included that encoding CK2α′ (1.8-fold; GenBank accession #M55268). Since CK2 can regulate both G1 and G2/M cell cycle transitions, the effects of LY294002 and LY303511 on CK2 activity were assessed.

SMILES: CO[C@H]1C[C@@H]2CC[C@@H](C)[C@@](O)(O2)C(=O)C(=O)N2CCCC[C@H]2C(=O)O[C@H]([C@H](C)C[C@@H]2CC[C@@H](O)[C@H](OC)C2)CC(=O)[C@H](C)/C=C(\C)[C@@H](O)[C@@H](OC)C(=O)[C@H](C)C[C@H](C)/C=C/C=C/C=C/1C [rapamycin, reference compound]
- BrDu uptake (DNA synthesis, proliferation) (A549 cells [1]): weak but statistically significant effect
- G1 population (A549 cells [2]): increased the G1 population
- levels of cyclin A and B (A549 cells [3]): but not rapamycin
- p21 Cip1 level (A549 cells [3]; 12 and 24 hours): but not rapamycin
- p27Kip1 level (A549 cells [3]; 12 and 24 hours): but not rapamycin
- whole cell KI-67 levels (A549 cells [4]): but not rapamycin
- G1 phase cells (G1 arrest) (PASM cells): led to G1 arrest

SMILES: COC[C@H]1OC(=O)c2coc3c2[C@@]1(C)C1=C(C3=O)[C@@H]2CCC(=O)[C@@]2(C)C[C@H]1OC(C)=O [wortmannin]
- levels of mTOR mRNA (A549 cells [5]): not by wortmannin
